This list holds what a sample rich in targets with a hit left over. Single values of this set are uncertain. The entries are a selection whose mix differs from that of the whole data set.
Each target was assayed with COC(=O)/C=C/c1ccccc1 [methyl cinnamate] (assay: log2 ratio of iodoacetamide-alkyne labeling of the cysteine site, DMSO over compound (competition); higher = stronger covalent engagement of the cysteine by the compound, active = 1 or more). Details: 500 µM; treatment time 1 h; system: HEK293T cell lysate.
Summary of the method: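 For each cysteine, the log2 competition ratio is mean control-channel reporter intensity over mean compound-channel reporter intensity. HEK293T lysate (2 mg/mL) was exposed to vehicle or electrophile (500 µM, 1 h, ambient temperature), labelled with iodoacetamide alkyne (1 h), clicked to sCIP-TMT reagents, digested overnight with trypsin at 37 °C, streptavidin-enriched and analysed by Orbitrap Eclipse LC-MS/MS with FAIMS and FragPipe. Cysteines quantified in only one of three replicates, each with duplicate channels, were excluded.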

Amino acid sequences for entries named in this document (tags omitted). A change or cut given only in a name is not applied to a line headed by its entry.
UniProt P50579: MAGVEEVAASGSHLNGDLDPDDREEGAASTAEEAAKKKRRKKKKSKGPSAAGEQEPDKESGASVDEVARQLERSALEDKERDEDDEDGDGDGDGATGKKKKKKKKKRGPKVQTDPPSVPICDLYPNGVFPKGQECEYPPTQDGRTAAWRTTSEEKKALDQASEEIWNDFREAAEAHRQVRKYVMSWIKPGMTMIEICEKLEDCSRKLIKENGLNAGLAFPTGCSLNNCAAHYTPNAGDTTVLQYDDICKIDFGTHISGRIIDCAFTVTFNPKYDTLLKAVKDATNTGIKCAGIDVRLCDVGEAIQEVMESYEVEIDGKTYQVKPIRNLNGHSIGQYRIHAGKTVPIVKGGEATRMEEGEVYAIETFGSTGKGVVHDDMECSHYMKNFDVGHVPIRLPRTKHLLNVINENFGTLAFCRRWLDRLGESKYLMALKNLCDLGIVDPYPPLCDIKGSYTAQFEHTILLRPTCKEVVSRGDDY
UniProt P46821: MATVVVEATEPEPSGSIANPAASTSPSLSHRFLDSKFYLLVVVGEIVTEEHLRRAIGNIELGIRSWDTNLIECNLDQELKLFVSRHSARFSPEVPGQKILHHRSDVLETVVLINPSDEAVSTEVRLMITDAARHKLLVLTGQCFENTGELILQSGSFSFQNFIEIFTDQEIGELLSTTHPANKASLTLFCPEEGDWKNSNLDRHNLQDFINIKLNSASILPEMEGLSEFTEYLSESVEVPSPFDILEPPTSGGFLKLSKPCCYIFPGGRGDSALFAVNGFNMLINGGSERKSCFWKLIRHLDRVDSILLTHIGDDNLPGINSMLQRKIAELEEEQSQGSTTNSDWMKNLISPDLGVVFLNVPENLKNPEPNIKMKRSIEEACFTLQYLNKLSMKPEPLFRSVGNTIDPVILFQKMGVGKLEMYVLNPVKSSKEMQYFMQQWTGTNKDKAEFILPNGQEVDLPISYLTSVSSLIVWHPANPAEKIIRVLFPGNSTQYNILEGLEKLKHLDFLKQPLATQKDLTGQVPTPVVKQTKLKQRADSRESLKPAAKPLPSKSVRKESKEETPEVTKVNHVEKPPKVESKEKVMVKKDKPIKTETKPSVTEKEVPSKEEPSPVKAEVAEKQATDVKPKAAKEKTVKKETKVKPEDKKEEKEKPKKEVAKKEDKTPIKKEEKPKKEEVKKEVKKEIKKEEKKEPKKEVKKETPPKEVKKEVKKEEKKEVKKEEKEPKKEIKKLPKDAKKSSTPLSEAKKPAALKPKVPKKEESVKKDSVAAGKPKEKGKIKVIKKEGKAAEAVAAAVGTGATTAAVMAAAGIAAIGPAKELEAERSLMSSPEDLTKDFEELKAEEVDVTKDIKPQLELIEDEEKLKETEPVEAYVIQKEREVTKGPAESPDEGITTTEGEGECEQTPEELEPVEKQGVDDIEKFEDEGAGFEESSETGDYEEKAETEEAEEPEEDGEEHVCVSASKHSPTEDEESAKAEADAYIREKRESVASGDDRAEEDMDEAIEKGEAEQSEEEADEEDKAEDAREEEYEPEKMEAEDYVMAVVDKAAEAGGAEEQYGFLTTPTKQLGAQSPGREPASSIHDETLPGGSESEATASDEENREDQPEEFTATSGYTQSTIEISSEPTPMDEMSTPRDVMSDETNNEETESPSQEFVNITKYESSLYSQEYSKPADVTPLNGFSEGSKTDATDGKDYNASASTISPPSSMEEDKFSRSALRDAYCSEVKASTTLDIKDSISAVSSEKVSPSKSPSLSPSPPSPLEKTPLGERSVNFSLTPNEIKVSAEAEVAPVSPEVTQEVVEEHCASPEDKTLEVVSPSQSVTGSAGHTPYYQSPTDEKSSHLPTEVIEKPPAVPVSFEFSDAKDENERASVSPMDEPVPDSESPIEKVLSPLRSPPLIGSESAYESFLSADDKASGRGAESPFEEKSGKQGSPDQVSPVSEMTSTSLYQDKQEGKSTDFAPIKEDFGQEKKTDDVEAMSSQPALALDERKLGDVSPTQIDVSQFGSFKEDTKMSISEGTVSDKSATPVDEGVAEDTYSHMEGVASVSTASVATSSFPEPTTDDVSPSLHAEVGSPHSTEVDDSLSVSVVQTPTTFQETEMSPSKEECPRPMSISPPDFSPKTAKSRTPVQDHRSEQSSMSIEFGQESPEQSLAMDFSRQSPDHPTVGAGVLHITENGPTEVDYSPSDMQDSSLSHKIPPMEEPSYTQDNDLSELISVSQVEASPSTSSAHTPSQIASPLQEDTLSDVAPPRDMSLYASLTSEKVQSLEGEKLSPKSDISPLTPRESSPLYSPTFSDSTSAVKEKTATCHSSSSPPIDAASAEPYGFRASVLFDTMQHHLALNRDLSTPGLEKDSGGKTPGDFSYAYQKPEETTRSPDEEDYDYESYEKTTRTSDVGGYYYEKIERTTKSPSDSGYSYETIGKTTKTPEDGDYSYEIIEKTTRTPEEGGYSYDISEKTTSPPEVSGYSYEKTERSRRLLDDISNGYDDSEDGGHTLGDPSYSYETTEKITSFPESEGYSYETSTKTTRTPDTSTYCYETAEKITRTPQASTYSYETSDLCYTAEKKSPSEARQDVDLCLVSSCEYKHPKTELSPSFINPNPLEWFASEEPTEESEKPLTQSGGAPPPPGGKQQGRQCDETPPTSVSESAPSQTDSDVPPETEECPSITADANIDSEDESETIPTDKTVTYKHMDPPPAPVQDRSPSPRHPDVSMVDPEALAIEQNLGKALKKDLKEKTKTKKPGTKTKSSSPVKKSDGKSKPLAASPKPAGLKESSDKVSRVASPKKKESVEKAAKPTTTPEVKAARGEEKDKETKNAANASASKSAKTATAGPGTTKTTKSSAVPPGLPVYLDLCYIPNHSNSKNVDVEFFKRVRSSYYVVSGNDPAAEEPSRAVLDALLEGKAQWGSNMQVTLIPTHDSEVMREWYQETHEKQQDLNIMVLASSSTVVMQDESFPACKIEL
UniProt P49327, whole entry, looked up: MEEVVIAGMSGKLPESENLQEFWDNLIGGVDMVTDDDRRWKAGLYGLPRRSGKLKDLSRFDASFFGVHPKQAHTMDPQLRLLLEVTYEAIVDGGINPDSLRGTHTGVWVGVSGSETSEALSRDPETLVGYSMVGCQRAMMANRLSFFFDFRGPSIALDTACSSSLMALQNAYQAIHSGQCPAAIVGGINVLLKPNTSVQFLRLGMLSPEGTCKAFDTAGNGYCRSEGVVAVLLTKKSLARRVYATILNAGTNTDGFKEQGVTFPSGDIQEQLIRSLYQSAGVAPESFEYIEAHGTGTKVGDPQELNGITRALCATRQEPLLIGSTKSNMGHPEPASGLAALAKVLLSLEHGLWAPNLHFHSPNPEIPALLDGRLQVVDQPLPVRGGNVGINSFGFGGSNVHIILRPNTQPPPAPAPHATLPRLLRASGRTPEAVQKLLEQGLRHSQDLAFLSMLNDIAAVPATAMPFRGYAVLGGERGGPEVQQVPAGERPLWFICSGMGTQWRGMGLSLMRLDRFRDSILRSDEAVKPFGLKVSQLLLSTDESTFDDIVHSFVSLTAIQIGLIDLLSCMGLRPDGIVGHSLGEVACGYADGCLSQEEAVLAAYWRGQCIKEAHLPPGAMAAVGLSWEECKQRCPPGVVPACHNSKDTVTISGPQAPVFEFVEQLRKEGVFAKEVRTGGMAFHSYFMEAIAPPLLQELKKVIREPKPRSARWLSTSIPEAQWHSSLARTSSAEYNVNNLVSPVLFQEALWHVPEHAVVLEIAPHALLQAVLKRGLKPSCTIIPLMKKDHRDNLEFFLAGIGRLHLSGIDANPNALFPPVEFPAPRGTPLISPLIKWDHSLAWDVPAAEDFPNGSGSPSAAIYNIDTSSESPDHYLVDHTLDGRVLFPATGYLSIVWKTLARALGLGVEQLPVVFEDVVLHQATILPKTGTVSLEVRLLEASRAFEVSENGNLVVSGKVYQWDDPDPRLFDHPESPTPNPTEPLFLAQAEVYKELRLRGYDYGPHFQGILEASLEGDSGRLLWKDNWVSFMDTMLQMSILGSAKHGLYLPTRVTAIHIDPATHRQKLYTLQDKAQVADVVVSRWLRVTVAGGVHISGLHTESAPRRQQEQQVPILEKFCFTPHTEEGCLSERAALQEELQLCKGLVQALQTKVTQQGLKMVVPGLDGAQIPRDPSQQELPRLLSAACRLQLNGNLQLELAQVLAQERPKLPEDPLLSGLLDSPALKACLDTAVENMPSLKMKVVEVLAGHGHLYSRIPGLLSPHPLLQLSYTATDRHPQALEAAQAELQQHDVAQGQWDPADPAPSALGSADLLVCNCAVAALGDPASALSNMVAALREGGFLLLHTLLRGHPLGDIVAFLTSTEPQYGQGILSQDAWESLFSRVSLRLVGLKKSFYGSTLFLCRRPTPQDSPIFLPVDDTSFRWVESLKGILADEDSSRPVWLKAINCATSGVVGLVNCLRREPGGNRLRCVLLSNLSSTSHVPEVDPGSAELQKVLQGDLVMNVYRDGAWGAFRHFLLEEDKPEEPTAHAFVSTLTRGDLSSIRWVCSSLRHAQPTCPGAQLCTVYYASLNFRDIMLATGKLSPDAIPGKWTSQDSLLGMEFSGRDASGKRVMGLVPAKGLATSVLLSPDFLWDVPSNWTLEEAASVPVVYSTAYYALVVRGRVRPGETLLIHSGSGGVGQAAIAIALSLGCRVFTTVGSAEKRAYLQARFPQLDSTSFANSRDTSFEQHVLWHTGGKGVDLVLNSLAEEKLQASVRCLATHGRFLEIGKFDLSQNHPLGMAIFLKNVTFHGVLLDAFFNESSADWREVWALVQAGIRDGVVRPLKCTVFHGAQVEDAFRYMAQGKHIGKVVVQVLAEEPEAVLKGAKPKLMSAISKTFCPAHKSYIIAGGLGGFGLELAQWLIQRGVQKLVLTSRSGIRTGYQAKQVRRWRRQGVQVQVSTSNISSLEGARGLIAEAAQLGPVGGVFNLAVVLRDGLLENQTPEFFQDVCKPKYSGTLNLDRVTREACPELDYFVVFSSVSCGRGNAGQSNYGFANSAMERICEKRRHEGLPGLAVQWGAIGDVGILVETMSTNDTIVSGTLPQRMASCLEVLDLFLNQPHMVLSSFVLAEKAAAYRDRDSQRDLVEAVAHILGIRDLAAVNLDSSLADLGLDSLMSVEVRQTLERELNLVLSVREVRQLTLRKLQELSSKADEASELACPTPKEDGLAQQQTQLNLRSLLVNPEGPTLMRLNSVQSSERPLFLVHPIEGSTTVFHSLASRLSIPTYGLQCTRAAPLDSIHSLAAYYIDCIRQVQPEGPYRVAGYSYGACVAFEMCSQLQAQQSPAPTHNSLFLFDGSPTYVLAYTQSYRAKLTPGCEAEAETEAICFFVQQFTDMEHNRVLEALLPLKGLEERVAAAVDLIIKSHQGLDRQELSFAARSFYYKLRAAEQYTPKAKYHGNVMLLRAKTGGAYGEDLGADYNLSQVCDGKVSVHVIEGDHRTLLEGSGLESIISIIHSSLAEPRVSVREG
UniProt P49756, whole entry, looked up: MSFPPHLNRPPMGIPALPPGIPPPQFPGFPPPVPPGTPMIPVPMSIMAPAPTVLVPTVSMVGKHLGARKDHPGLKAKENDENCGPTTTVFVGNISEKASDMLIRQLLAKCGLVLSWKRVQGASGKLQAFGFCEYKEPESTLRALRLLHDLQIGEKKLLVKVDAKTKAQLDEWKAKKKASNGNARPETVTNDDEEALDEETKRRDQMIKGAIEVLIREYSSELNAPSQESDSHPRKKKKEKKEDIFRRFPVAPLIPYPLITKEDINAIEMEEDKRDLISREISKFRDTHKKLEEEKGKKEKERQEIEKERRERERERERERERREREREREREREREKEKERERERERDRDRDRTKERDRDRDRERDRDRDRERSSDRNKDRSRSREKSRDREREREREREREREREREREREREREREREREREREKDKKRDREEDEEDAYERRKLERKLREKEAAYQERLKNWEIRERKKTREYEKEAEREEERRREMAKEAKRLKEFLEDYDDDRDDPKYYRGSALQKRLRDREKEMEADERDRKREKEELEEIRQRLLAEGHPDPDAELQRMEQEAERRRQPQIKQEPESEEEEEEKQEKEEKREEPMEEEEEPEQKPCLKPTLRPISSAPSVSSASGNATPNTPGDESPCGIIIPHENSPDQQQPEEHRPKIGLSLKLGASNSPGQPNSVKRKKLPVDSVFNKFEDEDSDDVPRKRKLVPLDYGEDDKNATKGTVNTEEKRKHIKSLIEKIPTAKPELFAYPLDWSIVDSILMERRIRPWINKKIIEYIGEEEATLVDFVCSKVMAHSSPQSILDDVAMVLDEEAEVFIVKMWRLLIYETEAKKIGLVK
UniProt P48047: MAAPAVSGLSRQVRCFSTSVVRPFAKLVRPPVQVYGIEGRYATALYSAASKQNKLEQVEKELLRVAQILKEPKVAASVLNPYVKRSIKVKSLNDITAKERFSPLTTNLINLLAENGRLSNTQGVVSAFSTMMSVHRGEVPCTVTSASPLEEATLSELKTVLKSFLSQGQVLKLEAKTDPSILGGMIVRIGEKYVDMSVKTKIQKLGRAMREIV

log2 ratio of iodoacetamide-alkyne labeling, inactive:
CCT3 C40 (UniProt P49368) -0.0239
UTRN C2185 (UniProt P46939) 0.0765
CAPZB C36 (UniProt P47756) -0.0475
RPL27A C144 (UniProt P46776) -0.164
RANBP2 C2407 (UniProt P49792) -0.0549
METAP2 C135 (UniProt P50579) 0.291
MAP1B C1228 (UniProt P46821) 0.344
FASN C1141 (UniProt P49327) 0.202
UTRN C1218 (UniProt P46939) 0.0488
RANGAP1 C338 (UniProt P46060) 0.0536
RPL14 C54 (UniProt P50914) 0.0537
CCT5 C429 (UniProt P48643) 0.14
MKI67 C1251 (UniProt P46013) 0.455
CCT3 C475 (UniProt P49368) 0.117
CCT8 C244 (UniProt P50990) 0.289
FNTB C11 (UniProt P49356) 0.0539
RANBP1 C132 (UniProt P43487) 0.0918
MSH2 C333 (UniProt P43246) 0.0763
MAP1B C2088 (UniProt P46821) 0.537
RBM25 C110 (UniProt P49756) 0.158
UniProt P48047_C141 0.0847

For convenience, part of the list above.
log2 ratio of iodoacetamide-alkyne labeling, inactive:
CCT8 C244 (UniProt P50990) 0.289
FNTB C11 (UniProt P49356) 0.0539
RANBP1 C132 (UniProt P43487) 0.0918
MSH2 C333 (UniProt P43246) 0.0763
MAP1B C2088 (UniProt P46821) 0.537

Source: the supplement of paper PMC11006884
